One substance from article PMC4388676 (PLoS ONE, 2015) can be followed below.

Some peptides are written in HELM: one residue between dots, names in brackets for other building blocks, links after the first $.

This series can be described thus: general procedure: Fmoc solid-phase peptide synthesis; Novasyn TGR resin (substitution 0.25 mmol g^-1); HBTU/HOBt/DIPEA; COMU/DIPEA for Fmoc-(S)-2-(4'-pentenyl)alanine. To be noted: whole synthesis, final yield, scale of the general procedure 25 μmol of resin-bound peptide (ring-closing metathesis).

In turn, “PEPTIDE1{[ac].N.S.G.L.S.F.E.E.L.Y.R.N.A.Y.T.M.V.L.H.K.[am]}$$$$V2.0” displayed an isolated yield of 25%.
